Assay [1] addresses T1, C. elegans LIN9-LIN52 heterodimeric Myb-binding domain complex (C. elegans) (UniProt P30630+Q10120).
T1 sequence 1: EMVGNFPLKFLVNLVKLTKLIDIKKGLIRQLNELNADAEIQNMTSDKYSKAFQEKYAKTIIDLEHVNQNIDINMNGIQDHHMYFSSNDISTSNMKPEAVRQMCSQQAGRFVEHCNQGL
T1 sequence 2: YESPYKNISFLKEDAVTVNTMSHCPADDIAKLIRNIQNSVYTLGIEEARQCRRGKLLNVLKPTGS
The assay can be described thus: condition: Myb fragment ~500 μM in the syringe, LIN9-LIN52 ~25–50 μM; ITC; Myb fragment (~500 μM) in the syringe injected into LIN9-LIN52 heterodimer (~25–50 μM) at 25°C; 20 mM Tris, 150 mM NaCl, 1 mM beta mercaptoethanol, pH 8.0; MicroCal VP-ITC; triplicate; both purified.

The target in assay [2] is T2, C. elegans LIN52 Myb-binding domain (residues 75-139), GST fusion (C. elegans) (UniProt Q10120).
T2 sequence: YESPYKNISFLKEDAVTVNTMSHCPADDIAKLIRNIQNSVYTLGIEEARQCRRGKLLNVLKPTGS
Kind of assay: co-purification; untagged LIN9 co-expressed in E. coli with GST-LIN52; heterodimer purified on glutathione-sepharose (40 mM Tris, 150 mM NaCl, 1 mM DTT, pH 8.0), anion exchange, TEV cleavage, Superdex 200.

These are yes or no findings as the source states them, for the method shown. Some results given as binding are weak or reduced against the parent protein; the word gives no strength. For some assays here: Sequences can lack the tags named with a protein.

Take VIDPKWARVACGKSRAAMFMEEQAYACLKNL (domain or fragment, UniProt P04197 602-632): in assay [1], the binding entry is “no binding”.

B1: C. elegans LIN9 Myb-binding domain (residues 442-559) (domain or fragment, UniProt P30630 442-559)
chain: EMVGNFPLKFLVNLVKLTKLIDIKKGLIRQLNELNADAEIQNMTSDKYSKAFQEKYAKTIIDLEHVNQNIDINMNGIQDHHMYFSSNDISTSNMKPEAVRQMCSQQAGRFVEHCNQGL
For B1, the binding entry in assay [2] is “binds”.

Values taken from article PMC7225089, “A long lost key opens an ancient lock: Drosophila Myb causes a synthetic multivulval phenotype in nematodes” (Biology Open, 2020).
